In the supplement of paper PMC12067093, “Discovery and optimisation of a covalent ligand for TRIM25 and its application to targeted protein ubiquitination” (Chemical Science, 2025):
The other results are listed elsewhere or left out.

Compound: CC1Cc2ccccc2N1C(=O)C1CCCN(C1)C(=O)CCl (mixture of isomers) [TRIM25 ligand 11 (diastereomer mixture)]
Assay: probe-labelled cysteine peptide fold change vs DMSO (competition) (log2 fold change); higher = less target engagement (more negative = stronger competition)
Settings: THP-1, incubation time: 4 h
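Further: competitive chemoproteomic profiling in live THP-1 cells with an iodoacetamide desthiobiotin (IA-DTB) probe, comparing probe-labelled peptide intensities in compound-treated cells against DMSO-treated controls.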

Target	probe-labelled cysteine peptide fold change (10 µM)	probe-labelled cysteine peptide fold change (50 µM)
CPSF1_Q10570_1178_GPVTALCHCNGHLVSAIGQK (UniProt Q10570)	0.00342	0.339
CSRP1_P21291_40_SCFLCMVCK (UniProt P21291)	0.0125	0.144
CRELD2_Q6UXH1_294_EHGQCADVDECSLAEK (UniProt Q6UXH1)	0.0157	-0.108
CPSF7_Q8N684_399_DCLHGIEAK (UniProt Q8N684)	-0.0325	-0.0369
CPVL_Q9H3G5_320_CTEPEDQLYYVK (UniProt Q9H3G5)	-0.0111	-0.168
CORO7_P57737_691_IVWVCDGR (UniProt P57737)	0.154	0.334
CTNND1_O60716_533_HIEWESVLTNTAGCLR (UniProt O60716)	-0.0166	-0.228
CORO1A_P31146_24_ADQCYEDVR (UniProt P31146)	-0.0083	-0.0868
CPSF2_Q9P2I0_763_IGLEGCLCQDFYR (UniProt Q9P2I0)	0.0937	0.316
CPNE1_Q99829_30_SDPLCVLLQDVGGGSWAELGR (UniProt Q99829)	0.0249	-0.135
CPSF3_Q9UKF6_626_RLEIMLQDIFGEDCVSVK (UniProt Q9UKF6)	-0.0038	0.0962
CRYBG3_Q68DQ2_439_EELVEPQGPAISDFSCSK (UniProt Q68DQ2)	-0.0652	-0.0273
COX17_Q14061_23+24_KPLKPCCACPETK (UniProt Q14061)	-0.386	-0.745
COX20_Q5RI15_29_LLGFLDVENTPCAR (UniProt Q5RI15)	0.109	0.101
CORO7_P57737_790_TECDVR (UniProt P57737)	-0.0371	0.0187
CRBN_Q96SW2_188_VQILPECVLPSTMSAVQLESLNK (UniProt Q96SW2)	-0.294	0.216
CPSF1_Q10570_983_LHPMAIDGPVDSFAPFHNVNCPR (UniProt Q10570)	0.118	0.0815
CORO1C_Q9ULV4_456_DTICNQDER (UniProt Q9ULV4)	0.0103	-0.044
CRELD2_Q6UXH1_166_QGDGSCR (UniProt Q6UXH1)	0.14	0.183
CPNE3_O75131_249_SSPVEFECINEK (UniProt O75131)	-0.0883	-0.107
CSDE1_O75534_129_SPAAPGQSPTGSVCYER (UniProt O75534)	0.0651	0.0584
CPVL_Q9H3G5_271_QCHECIEHIR (UniProt Q9H3G5)	0.11	0.292
CORO1B_Q9BR76_192+195_LDSLHPDLIYNVSWNHNGSLFCSACK (UniProt Q9BR76)	0.324	-0.0495
CTCF_P49711_472_YCDAVFHER (UniProt P49711)	-0.00144	0.111
CORO7_P57737_363_KAVEFHEDLFPDTAGCVPATDPHSWWAGDNQQVQK (UniProt P57737)	-0.338	-0.389
CSRP1_P21291_25_TVYFAEEVQCEGNSFHK (UniProt P21291)	0.153	-0.0744

Target	probe-labelled cysteine peptide fold change (10 µM)	probe-labelled cysteine peptide fold change (50 µM)
CTBP1_Q13363_54_DVATVAFCDAQSTQEIHEK (UniProt Q13363)	-0.0987	-0.00903
CPSF4_O95639_162_RVICVNYLVGFCPEGPSCK (UniProt O95639)	-0.292	0.0715
CSTF2T_Q9H0L4_441_RGMETCAMETR (UniProt Q9H0L4)	-0.0411	-0.0952
CPSF2_Q9P2I0_335_VVLASQPDLECGFSR (UniProt Q9P2I0)	-0.0499	0.0252
COX5B_P10606_91+93_IVGCICEEDNTSVVWFWLHK (UniProt P10606)	0.037	0.0397
CRACR2A_Q9BSW2_29_GSGACLHPLDSLEQK (UniProt Q9BSW2)	-0.1	-0.136
CRYZ_Q08257_45_VHACGVNPVETYIR (UniProt Q08257)	-0.0836	0.0644
CORO7_P57737_505_GLNLTTPGESDGFCANK (UniProt P57737)	0.0263	0.0442
CSTF2T_Q9H0L4_441_GMETCAMETR (UniProt Q9H0L4)	-0.0822	-0.124
CSDE1_O75534_739_VCEGPK (UniProt O75534)	-0.0487	0.0555
CPSF2_Q9P2I0_765_IGLEGCLCQDFYR (UniProt Q9P2I0)	-0.0679	-0.0456
CPSF3_Q9UKF6_498_RNFNYHILSPCDLSNYTDLAMSTVK (UniProt Q9UKF6)	-0.13	-0.173
CSNK2B_P67870_109_YQQGDFGYCPR (UniProt P67870)	0.0726	-0.018
CPSF2_Q9P2I0_522_CISTTESIEIK (UniProt Q9P2I0)	-0.00754	-0.113
CRIP1_P50238_52_PYCNHPCYAAMFGPK (UniProt P50238)	-0.178	-0.259
CSDE1_O75534_186_CQGVVCAMK (UniProt O75534)	-0.0611	-0.156
CPSF2_Q9P2I0_578_QLIIVHGPPEASQDLAECCR (UniProt Q9P2I0)	0.341	0.0138
CPSF1_Q10570_20_QAHPPTGLEFSMYCNFFNNSER (UniProt Q10570)	0.0303	0.0242
CPT1A_P50416_586_FCLTYEASMTR (UniProt P50416)	0.307	0.222
CPSF6_Q16630_159_ELHGQNPVVTPCNK (UniProt Q16630)	0.0533	0.00734
CPT2_P23786_445_TLTIDCVQFQR (UniProt P23786)	0.00735	-0.107
CORO1B_Q9BR76_345_CEPIVMTVPR (UniProt Q9BR76)	-0.0485	-0.00803
CPSF1_Q10570_1020_CTAHYVAYHVESK (UniProt Q10570)	0.0805	0.0337
COX6B1_P14854_54_GGDISVCEWYQR (UniProt P14854)	-0.188	-0.269
CRYBG3_Q68DQ2_474_HEHLQLPESECSDK (UniProt Q68DQ2)	0.101	-0.0291
CSNK2A1_P68400_147_ALDYCHSMGIMHR (UniProt P68400)	0.203	0.0427

Complete entries from above:
CTNND1_O60716_533_HIEWESVLTNTAGCLR (UniProt O60716) is listed as probe-labelled cysteine peptide fold change (10 µM) = -0.0166; probe-labelled cysteine peptide fold change (50 µM) = -0.228
COX20_Q5RI15_29_LLGFLDVENTPCAR (UniProt Q5RI15) is listed as probe-labelled cysteine peptide fold change (10 µM) = 0.109; probe-labelled cysteine peptide fold change (50 µM) = 0.101
CSDE1_O75534_186_CQGVVCAMK (UniProt O75534) is listed as probe-labelled cysteine peptide fold change (10 µM) = -0.0611; probe-labelled cysteine peptide fold change (50 µM) = -0.156

(next part)

Target	probe-labelled cysteine peptide fold change (10 µM)	probe-labelled cysteine peptide fold change (50 µM)
CSTF2_P33240_150_LCVQNSPQEAR (UniProt P33240)	0.0215	-0.0712
CSE1L_P55060_344_NLFEDQNTLTSICEK (UniProt P55060)	-0.0761	-0.057
CPSF6_Q16630_476_VLISSLQDCLHGIESK (UniProt Q16630)	-0.167	-0.0708
COQ9_O75208_153_DGSELILHFVTQCNTR (UniProt O75208)	-0.0441	0.03
CRELD1_Q96HD1_105_SDFECHR (UniProt Q96HD1)	0.122	0.424
COX5B_P10606_93_IVGCICEEDNTSVVWFWLHK (UniProt P10606)	-0.0988	-0.178
CORO6_Q6QEF8_344_CEPIIMTVPR (UniProt Q6QEF8)	0.0191	-0.0827
CSK_P41240_422_NCWHLDAAMRPSFLQLR (UniProt P41240)	-0.104	-0.125
CTDP1_Q9Y5B0_277_DECIDPFSK (UniProt Q9Y5B0)	0.0916	-0.121
CTBP1_Q13363_312_DAPNLICTPHAAWYSEQASIEMR (UniProt Q13363)	-0.262	-0.109
CSK_P41240_299_FSLDVCEAMEYLEGNNFVHR (UniProt P41240)	0.0358	0.00314
CPD_O75976_720_ENSQMFQGRPCK (UniProt O75976)	-0.0667	-0.0432
CTCF_P49711_356_CSMCDYASVEVSK (UniProt P49711)	-0.0609	-0.0276
CRYZL1_O95825_40_ACALSQINTK (UniProt O95825)	0.0943	0.0296
CRELD2_Q6UXH1_288+294_EHGQCADVDECSLAEK (UniProt Q6UXH1)	-0.0382	0.065
CTNNAL1_Q9UBT7_104_EEINIACIEAK (UniProt Q9UBT7)	-0.0933	0.172
CORO7_P57737_75_VAHLGCHSDLVTDLDFSPFDDFLLATGSADR (UniProt P57737)	0.031	0.0305
COQ8A_Q8NI60_620_KMGGSFLICSK (UniProt Q8NI60)	-0.292	-0.253
CPOX_P36551_304_EACDQHGPDLYPK (UniProt P36551)	-0.0539	-0.0357
CTBP2_P56545_44_DCTVEMPILK (UniProt P56545)	0.04	-0.15
CTCF_P49711_155_EGLAESEPMICHTLPLPEGFQVVK (UniProt P49711)	-0.14	-0.261
CPQ_Q9Y646_233_IPTACITVEDAEMMSR (UniProt Q9Y646)	-0.00737	-0.0882
CSTF2T_Q9H0L4_150_LCVQNSHQEAR (UniProt Q9H0L4)	-0.00373	-0.0348
CTCF_P49711_439+442_FHCPHCDTVIAR (UniProt P49711)	-0.0628	0.00661
